Test system: recBCD enzyme
Assay: Dye displacement fluorometric helicase assay (DNA unwinding followed by dye fluorescence)
Assay type: biochemical, E. coli
Conditions: 250 nM DAPI; for Apparent binding stoichiometry of recBCD enzyme: 100 nM H33258, 300 nM TO
Experimental: Fluorometric helicase assay: The standard reaction buffer consisted of 25 mM Tris-acetate (pH 7.5), 1 mM Mg(OAc)2, and 1 mM DTT. When SSB protein was included, it was present at a 3-fold molar excess, assuming a site size of 15 nucleotides/monomer under stoichiometric conditions. This corresponds to a protein concentration which is 20% of the DNA (nucleotide) concentration. The DNA substrate was BamHI-digested pBR322 DNA, at a concentration of 10 uM nucleotide (2.1 nM ends).
The reaction (350 ul total volume) contained standard buffer, linear pBR322 DNA, and the indicated concentration of recBCD enzyme. […] The fluorescence signal due to these components was zeroed out. The fluorophore (either SSB protein or dye) was then added, and the reaction was allowed to equilibrate to the indicated temperature. Unwinding was initiated by the addition of ATP to 3 mM final concentration. […] For SSB protein fluorescence measurements, the value for 100% unwinding was calculated as described previously (28, 41). For dye fluorescence experiments, the value for complete unwinding was obtained by subtracting the fluorescence in the presence of an equimolar amount of ssDNA (i.e., heat-denatured pBR322) (FssDNA) from the fluorescence at the start of the reaction (FdsDNA). The difference in these values (FdsDNA -FssDNA) was taken to be the maximum fluorescence change possible if all of the DNA molecules were fully unwound (Fexp). The observed fluorescence change (Fobs) was divided by this differ ence to obtain the extent of unwinding. Initial rates were then calculated as described previously (28).
Fluorescence measurements were carried out on a Shimadzu RF5000U spectrofluorophotometer. When the intrinsic fluorescence of SSB protein was measured, the excitation and emission wavelengths were set at 290 and 340 nm, respectively. The excitation and emission wavelengths for the various dyes were determined experimentally in the presence of dsDNA. For AO, these values were 487 and 510 nm; for DAPI, 345 and 467 nm; for EB, 546 and 590 nm; for EHD, 552 and 596 nm; for H33258, 344 and 487 nm; and for TO, 504 and 528 nm. When SSB protein fluorescence was monitored, the band widths were 1.5 and 10 nm for the excitation and emission slits, respectively; for all of the dye fluorescence experiments, these values were 5 and 10 nm, respectively.
To determine whether the presence of dyes affected the observed rate of unwinding, the reaction (including SSB protein) was performed at several concentrations of DAPI, H33258, and TO. The reactions were performed at 20° C. in standard buffer with 10 uM nucleotide (2.1 nM ends) linear pBR322 DNA, 2 uM SSB protein, 0.5 nM total (0.17 nM functional) recBCD enzyme, and the indicated concentration of dye. Unwinding was initiated by adding ATP to a final concentration of 3 mM. […] For each dye (DAPI (.circle-solid.), H33258 (o), or TO (.tangle-solidup.), the initial rate of unwinding was determined as described in the Experimental Procedures and is plotted in panel B as a function of dye concentration. Due to the lag behavior illustrated in panel A, the data at concentrations ≤100 nM are considered unreliable, as indicated by shading this portion of the graph.
In FIG. 4A, raw data from an experiment in which recBCD enzyme concentration was varied at a given concentration of TO are shown; SSB protein was included to allow comparison to previous results. From results such as these, using either DAPI, H33258, or TO, the data in FIG. 4B were generated. Unwinding was performed as in FIG. 3, except that the concentration of recBCD enzyme was varied, and a constant concentration of fluorophore (250 nM for DAPI; 100 nM for H33258; and 300 nM for TO) was used. In panel A, a portion of the raw data obtained with TO are shown. The observed rates of unwinding derived from such experiments are shown in panel B. DAPI, .circle-solid.; H33258, o; TO, .tangle-solidup.. […]

[1] = with SSB protein, 20° C., SSB assay gives 2.9±0.2

Structure (SMILES)	Apparent binding stoichiometry of recBCD enzyme (SSB protein omitted) [molecules/end]	recBCD protein concentration at which saturation is achieved (with SSB protein, 2.1 nM DNA ends) [nM]	Apparent binding stoichiometry of recBCD enzyme [1] [molecules/end]
N=C(N)c1ccc(-c2cc3ccc(C(=N)N)cc3[nH]2)cc1	3.5±0.1	7.1	3.4±0.3
CN1CCN(c2ccc3[nH]c(-c4ccc5[nH]c(-c6ccc(O)cc6)nc5c4)nc3c2)CC1 [H33258, Hoechst 33258]	2.8±0.3	–	3.3±0.3
CN1C(=Cc2cc[n+](C)c3ccccc23)Sc2ccccc21 [TO, thiazole orange]	2.7±0.2	–	3.2±0.2
